These results are taken from paper PMC7032568.

The test has as its target T1, YFP-tagged WDHD1 (human) (UniProt O75717).
T1 sequence: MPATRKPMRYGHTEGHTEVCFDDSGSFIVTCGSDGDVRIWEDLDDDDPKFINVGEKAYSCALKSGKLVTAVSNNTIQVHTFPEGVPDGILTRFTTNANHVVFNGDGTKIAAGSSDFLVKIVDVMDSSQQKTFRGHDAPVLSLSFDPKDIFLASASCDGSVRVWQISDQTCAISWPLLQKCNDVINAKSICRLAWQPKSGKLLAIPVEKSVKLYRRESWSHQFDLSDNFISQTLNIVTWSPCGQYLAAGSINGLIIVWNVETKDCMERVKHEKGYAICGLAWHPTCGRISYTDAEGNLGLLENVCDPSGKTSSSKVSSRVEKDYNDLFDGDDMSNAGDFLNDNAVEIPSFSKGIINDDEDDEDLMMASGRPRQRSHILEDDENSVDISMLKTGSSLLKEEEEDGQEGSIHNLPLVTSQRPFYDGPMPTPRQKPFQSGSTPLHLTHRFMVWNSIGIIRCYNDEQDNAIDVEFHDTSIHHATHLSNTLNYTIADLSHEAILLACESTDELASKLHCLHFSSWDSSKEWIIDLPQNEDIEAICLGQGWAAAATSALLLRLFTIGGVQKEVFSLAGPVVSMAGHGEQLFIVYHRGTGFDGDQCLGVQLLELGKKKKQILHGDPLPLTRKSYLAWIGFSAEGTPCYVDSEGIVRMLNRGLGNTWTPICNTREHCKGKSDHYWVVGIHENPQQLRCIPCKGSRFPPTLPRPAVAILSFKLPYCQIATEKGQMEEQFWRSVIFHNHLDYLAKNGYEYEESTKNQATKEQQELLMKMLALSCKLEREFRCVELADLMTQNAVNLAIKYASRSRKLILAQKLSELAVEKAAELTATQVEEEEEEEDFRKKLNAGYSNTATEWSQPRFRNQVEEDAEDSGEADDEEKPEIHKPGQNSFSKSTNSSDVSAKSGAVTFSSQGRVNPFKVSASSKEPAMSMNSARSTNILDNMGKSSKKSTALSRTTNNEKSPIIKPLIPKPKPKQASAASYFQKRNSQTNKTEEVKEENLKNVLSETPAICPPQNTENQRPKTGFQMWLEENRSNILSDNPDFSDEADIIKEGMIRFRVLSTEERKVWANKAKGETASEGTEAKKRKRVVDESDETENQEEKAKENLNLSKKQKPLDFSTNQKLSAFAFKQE
As to the kind of experiment: co-IP; YFP-tagged WDHD1 captured on GFP-trap beads from whole cell lysate with full-length DDX11 or DDX11 fragments; Western blot. On the technique in general: In western blotting, separated proteins are transferred to a membrane and probed.

No constants are given. Whether binding was seen depends on the method and setting. Binding seen in cells or lysates may run through a third protein. Binding can be weak; no strength is given. Sequences can lack the tags named with a protein.

Regarding “C-terminal part of DDX11 (human) (domain or fragment)”, the binding result is “binds”.
